Experimental data taken from PubChem BioAssay AID1296 (Columbia University Molecular Screening Center, 2008).
The campaign covered roughly 130,000 compounds. About 1,000 (0.77%) were called active. Inconclusive results, whose numbers are uncertain, are shown with a selection of clear calls.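 How the source made its calls: active means activation at 2 µM above a set limit, confirmed on inspection of the cell images; inconclusive means above the set limit but not confirmed on image inspection; inactive means the rest.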

Assay: activators of insulin promoter-driven GFP, primary screen, imaging, TRM-6 cells (human fetal islet line), eGFP reporter, cell count (AID 1296;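 further: share of cells whose green reporter signal exceeds an intensity cutoff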)
Details: at 2 µM, stronger effect = higher value, plate-scaled: unstimulated 0, stimulated control 100
How it was run: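 System – TRM-6 insulin promoter–eGFP reporter cells · Probe or stimulus – 0.75 µM tamoxifen as reporter inducer · Dosing – single-point 2 µM compound dose · Incubation – tamoxifen pre-incubation 15 h overnight, then compound exposure 48 h at 37 °C · Measured by – fixed-cell fluorescence microscopy, eGFP plus Hoechst · Evaluation – percent GFP-positive cells normalized to per-plate controls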

Row | Compound | activation
1 | CCOc1ccc2c(c1)OC(c1ccccc1)(C(F)(F)F)NC2=O (configuration not stated) | inconclusive: 212%
2 | CC1CCCCC1NC(=S)Nc1ccc(Cl)cc1Cl (configuration not stated) | inactive: -5.26%
3 | CC1=C(C)/C(=N\OS(=O)(=O)c2ccccc2)C=CC1=O | inconclusive: 183% [cytotoxic]
4 | COCCNC(=O)C(=O)NCCN1CCOCC1 | active: 494%
5 | O=C(COC(=O)c1ccco1)NCc1cccs1 | inactive: 4.54%
6 | CCOC(=O)/C(=N/Nc1ccc(C)cc1)S(=O)(=O)c1ccc(Cl)cc1 | inconclusive: 191% [cytotoxic]
7 | COc1ccccc1N1C(=O)C2C3CC(c4ccccc4)C(C3)C2C1=O (configuration not stated) | inactive: 3.7%
8 | NC(=O)c1nsc(C(=O)N(c2cccc(F)c2)C(C(=O)NCC2CCCO2)c2cccs2)c1N (configuration not stated) | inconclusive: 669%
9 | O=C(O)c1cn(Cc2ccccc2)c2ccccc2c1=O | active: 383%
10 | COc1ccc(NC(=O)CC2C(=O)N(Cc3ccccc3)C(=S)N2CCN2CCOCC2)cc1 (configuration not stated) | active: 333%
11 | N/C(=N\OC(=O)CCCc1ccccc1)c1cccc([N+](=O)[O-])c1 | inconclusive: 267%
12 | O=C(CN1CCC(NC(=O)c2ccc(F)cc2)CC1)NCc1ccccc1F | inconclusive: 250%
13 | COc1cc(C2NC(=S)NC(C)=C2C(=O)OC(C)C)ccc1OC(C)C (configuration not stated) | inconclusive: 435%
14 | CCCCOc1ccc(Br)cc1/C(C)=N/NC1=NCCN1 | inconclusive: 600%
15 | Clc1ccc(-c2nc(Cc3ccccc3)no2)cc1 | active: 83.9%
16 | NC(=O)c1ccc(CN2CCC(Cc3ccccc3)CC2)cc1 | active: 347%
17 | O=C(NCc1ccccc1Br)c1ccco1 | inconclusive: 533%
18 | O=C(C1=COCCO1)N1CCN(C(c2ccccc2)c2ccccc2)CC1 | inconclusive: 200%
19 | Cc1onc(-c2ccccc2)c1C(=O)N1CCN(C)CC1 | active: 100%
20 | O=C(O)c1[nH]nc2c1COc1ccccc1-2 | inconclusive: 77.8%
21 | CNc1nc(Oc2ccc(C(=O)OC)cc2)nc(SC)n1 | active: 494%
22 | CCCOc1ccc(C2C(=O)N(C3CCCCCC3)CC(=O)N2Cc2ccco2)cc1OC (configuration not stated) | inactive: 0%
23 | O=C(Nc1ccc(C(=O)N2CCCC2)cc1)c1ccccc1F | inconclusive: 438%
24 | O=C(N/N=C/c1ccc(-c2cccc(C(F)(F)F)c2)o1)c1cccc(F)c1 | inconclusive: 143%
25 | CC1(C)Cc2cccc(Oc3ccc(S(=O)(=O)N4CCCCC4)cn3)c2O1 | inconclusive: 100%
26 | Cc1[nH]c2ccccc2c1SCC(=O)Nc1nccs1 | inactive: 5.56%
27 | COc1ccc2occ(NC(C)=O)c2c1 | inactive: -4.35%

Taken from above.
Clc1ccc(-c2nc(Cc3ccccc3)no2)cc1 – activation: active: 83.9%
CCOC(=O)/C(=N/Nc1ccc(C)cc1)S(=O)(=O)c1ccc(Cl)cc1 – activation: inconclusive: 191% [cytotoxic]
